Results on one sequence are retold here after PMC10148159.

For at least one entry, the source does not settle the construct or the ends of the probe. Weaker means in comparison with the reference protein, sequence or condition of that experiment.

For this data set, the target named is DNA polymerase beta (Pol β) (Homo sapiens) (UniProt P06746). Nature of the data set: single-molecule TIRF. To be noted: 2.5 mM EDTA, very few stable complexes longer than about 1 s, 50 mM Hepes pH 7.4, 150 mM NaCl, 0.1 mg/ml BSA, 0.8% glucose, ~10 mM Trolox, catalase 0.04 mg/ml, glucose oxidase 1 mg/ml, room temperature, recombinant protein, label: 5'-biotin on strand 1 (immobilized), letters put together from the description.

Regarding “TGTGTGGAATACAGTGAGCGCAACG (double strand) [undamaged DNA 25-mer]”, the binding result is “binds more weakly”.
